Reference: publication PMC2868043, “The Yeast Cell Fusion Protein Prm1p Requires Covalent Dimerization to Promote Membrane Fusion” (PLoS ONE, 2010)
Where a chain is given by its changes, count along the chain named. In names and notes the source's numbering stands. No constants are given. Whether binding was seen depends on the method and setting. For some assays here: In cells and extracts the contact can be indirect. Some results given as binding are weak or reduced against the parent protein; the word gives no strength. Sequences can lack the tags named with a protein.

Legend:
[1] = molecular target: prm1-C308S-GFP (S. cerevisiae) (UniProt P53835); experiment: non-reducing SDS-PAGE and Western blot; whole cell lysate, reducing agent omitted from the sample buffer; cells induced with 10 µg/ml α-factor for 90 min (GFP alleles, anti-GFP blot) or with galactose (HA-PRM1, anti-HA blot); shows only SDS-resistant covalent dimers
[2] = molecular target: prm1-C329S-GFP (S. cerevisiae) (UniProt P53835); experiment: as above
[3] = molecular target: prm1-C377S-GFP (S. cerevisiae) (UniProt P53835); experiment: as above
[4] = molecular target: prm1-C424S-GFP (S. cerevisiae) (UniProt P53835); experiment: as above
[5] = molecular target: prm1-C436S-GFP (S. cerevisiae) (UniProt P53835); experiment: as above
[6] = molecular target: prm1-C438S-GFP (S. cerevisiae) (UniProt P53835); experiment: as above
Prm1-myc (S. cerevisiae) [7] = molecular target: T1, Prm1-myc (S. cerevisiae) (UniProt P53835); experiment: non-reducing SDS-PAGE and Western blot; blots of input and eluate of the α-myc immunoprecipitation from cells co-expressing PRM1-myc and a GFP-tagged mutant allele (Figure 4B); shows only covalent dimers
T1 sequence: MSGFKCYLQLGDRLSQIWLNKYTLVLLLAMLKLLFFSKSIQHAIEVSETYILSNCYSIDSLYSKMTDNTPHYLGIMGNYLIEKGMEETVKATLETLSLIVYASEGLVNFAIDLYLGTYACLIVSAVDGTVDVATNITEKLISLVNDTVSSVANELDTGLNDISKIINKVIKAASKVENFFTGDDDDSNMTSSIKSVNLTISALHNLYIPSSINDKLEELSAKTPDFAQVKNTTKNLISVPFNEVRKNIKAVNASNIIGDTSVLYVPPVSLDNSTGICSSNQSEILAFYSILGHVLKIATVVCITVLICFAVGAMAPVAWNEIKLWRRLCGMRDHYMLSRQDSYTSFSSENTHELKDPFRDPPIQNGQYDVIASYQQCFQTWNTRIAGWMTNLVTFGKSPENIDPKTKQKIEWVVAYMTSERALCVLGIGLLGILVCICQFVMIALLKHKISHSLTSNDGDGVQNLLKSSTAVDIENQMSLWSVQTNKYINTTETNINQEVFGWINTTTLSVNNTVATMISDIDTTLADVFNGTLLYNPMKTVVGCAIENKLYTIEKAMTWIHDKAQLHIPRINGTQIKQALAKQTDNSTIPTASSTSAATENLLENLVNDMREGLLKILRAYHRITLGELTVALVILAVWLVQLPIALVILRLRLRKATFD

Prm1-myc (S. cerevisiae) [8] = molecular target: T1, Prm1-myc (S. cerevisiae); experiment: co-IP; tagged PRM1 alleles co-expressed in the same cells, mated on YPD at 30°C for 3 h; membranes solubilised in 1% Triton X-100 (50 mM HEPES, 100 mM KOAc, 2 mM Mg(OAc)2, 1 mM EDTA); α-myc (9E10) agarose, 2 h at 4°C; eluted with 2% SDS; α-myc and α-GFP blots
Prm1-myc (S. cerevisiae) [9] = molecular target: T1, Prm1-myc (S. cerevisiae); experiment: condition: only in SDS (non-reducing SDS-PAGE, covalent dimers only); non-reducing SDS-PAGE and Western blot; blots of input and eluate of the α-myc immunoprecipitation from cells co-expressing PRM1-myc and a GFP-tagged mutant allele (Figure 4B); shows only covalent dimers
[10] = molecular target: prm1-E104L-GFP (S. cerevisiae) (UniProt P53835); experiment: non-reducing SDS-PAGE and Western blot; whole cell lysate, reducing agent omitted from the sample buffer; cells induced with 10 µg/ml α-factor for 90 min (GFP alleles, anti-GFP blot) or with galactose (HA-PRM1, anti-HA blot); shows only SDS-resistant covalent dimers
[11] = molecular target: T2, prm1-D112L-myc (S. cerevisiae) (UniProt P53835); experiment: co-IP; tagged PRM1 alleles co-expressed in the same cells, mated on YPD at 30°C for 3 h; membranes solubilised in 1% Triton X-100 (50 mM HEPES, 100 mM KOAc, 2 mM Mg(OAc)2, 1 mM EDTA); α-myc (9E10) agarose, 2 h at 4°C; eluted with 2% SDS; α-myc and α-GFP blots
T2 sequence: T1 sequence with D112L

Prm1-GFP (S. cerevisiae) = Prm1-GFP (S. cerevisiae) (UniProt P53835); experiment: condition: only reduced with 100 mM DTT before SDS-PAGE; reducing SDS-PAGE and Western blot; whole cell lysate of α-factor induced PRM1-GFP cells, samples reduced with 100 mM DTT before electrophoresis
Prm1-myc (S. cerevisiae) [12] = molecular target: T1, Prm1-myc (S. cerevisiae); experiment: co-IP; as a4, but Prm1-myc and Prm1-GFP expressed in opposite mating types; about half of the input cells had formed zygotes
[13] = molecular target: prm1-C6S-GFP (S. cerevisiae) (UniProt P53835); experiment: non-reducing SDS-PAGE and Western blot; whole cell lysate, reducing agent omitted from the sample buffer; cells induced with 10 µg/ml α-factor for 90 min (GFP alleles, anti-GFP blot) or with galactose (HA-PRM1, anti-HA blot); shows only SDS-resistant covalent dimers
[14] = molecular target: prm1-C55S-GFP (S. cerevisiae) (UniProt P53835); experiment: as above
[15] = molecular target: prm1-C277S-GFP (S. cerevisiae) (UniProt P53835); experiment: as above
[16] = molecular target: prm1-C302S-GFP (S. cerevisiae) (UniProt P53835); experiment: as above

B1: prm1-C308S-GFP (protein, UniProt P53835 1-661)
chain: T1 sequence with C308S
[1]
  binding: binds

B2: prm1-C329S-GFP (protein, UniProt P53835 1-661)
chain: T1 sequence with C329S
[2]
  binding: binds

B3: prm1-C377S-GFP (protein, UniProt P53835 1-661)
chain: T1 sequence with C377S
[3]
  binding: binds

B4: prm1-C424S-GFP (protein, UniProt P53835 1-661)
chain: T1 sequence with C424S
[4]
  binding: binds

B5: prm1-C436S-GFP (protein, UniProt P53835 1-661)
chain: T1 sequence with C436S
[5]
  binding: binds

B6: prm1-C438S-GFP (protein, UniProt P53835 1-661)
chain: T1 sequence with C438S
[6]
  binding: binds

B7: prm1-C120S-GFP (protein, UniProt P53835 1-661)
chain: T1 sequence with C120S
Prm1-myc (S. cerevisiae) [7]
  binding: binds
Prm1-myc (S. cerevisiae) [8]
  binding: binds

B8: prm1-C545S-GFP (protein, UniProt P53835 1-661)
chain: T1 sequence with C545S
Prm1-myc (S. cerevisiae) [7]
  binding: binds
Prm1-myc (S. cerevisiae) [8]
  binding: binds

B9: prm1-C120,277,545S-GFP (protein, UniProt P53835 1-661)
chain: T1 sequence with C120S, C277S, C545S
Prm1-myc (S. cerevisiae) [9]
  binding: no binding
Prm1-myc (S. cerevisiae) [8]
  binding: binds

B10: prm1-E104L-GFP (protein, UniProt P53835 1-661)
chain: T1 sequence with E104L
[10]
  binding: binds

B11: prm1-D112L-GFP (protein, UniProt P53835 1-661)
chain: T1 sequence with D112L
[11]
  binding: binds weakly

B12: Prm1-GFP (natural protein, S. cerevisiae, UniProt P53835 1-661, looked up)
chain: T1 sequence
notes: Prm1p, mating-specific multipass membrane protein of S. cerevisiae; monomer 73 kD; Glycosylated (sugar modifications); Forms a disulfide-linked homodimer; also called Prm1p; source: S. cerevisiae (W303 derivatives), PRM1 promoter, induced with α-factor or by mating; in whole cell lysate or Triton X-100 solubilised membranes; not shown: GFP, C-terminal, kept
Prm1-GFP (S. cerevisiae)
  binding: no binding
Prm1-myc (S. cerevisiae) [12]
  binding: binds weakly

B13: prm1-C6S-GFP (protein, UniProt P53835 1-661)
chain: T1 sequence with C6S
[13]
  binding: binds

B14: prm1-C55S-GFP (protein, UniProt P53835 1-661)
chain: T1 sequence with C55S
[14]
  binding: binds

B15: prm1-C277S-GFP (protein, UniProt P53835 1-661)
chain: T1 sequence with C277S
[15]
  binding: binds

B16: prm1-C302S-GFP (protein, UniProt P53835 1-661)
chain: T1 sequence with C302S
[16]
  binding: binds
